Results reported in paper doi:10.1101/2024.11.08.622598.
Results are given in words; binding and its absence hold for the method and conditions named. In cells and extracts the contact can be indirect. Some binding calls cover weakened binding; strength is not graded here.

Protein sequences, listed by entry. Tags and fused reporters are not part of them.
UniProt Q96BN8: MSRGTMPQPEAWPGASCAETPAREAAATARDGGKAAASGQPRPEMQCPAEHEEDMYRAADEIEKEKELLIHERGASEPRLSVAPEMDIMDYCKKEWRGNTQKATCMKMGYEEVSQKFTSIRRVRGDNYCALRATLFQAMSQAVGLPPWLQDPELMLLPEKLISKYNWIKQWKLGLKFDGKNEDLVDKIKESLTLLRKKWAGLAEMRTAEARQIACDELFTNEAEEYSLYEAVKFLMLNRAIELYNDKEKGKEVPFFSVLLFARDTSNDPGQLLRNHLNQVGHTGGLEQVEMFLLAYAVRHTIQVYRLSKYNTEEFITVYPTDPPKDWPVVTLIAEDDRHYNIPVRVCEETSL
UniProt Q96EP0: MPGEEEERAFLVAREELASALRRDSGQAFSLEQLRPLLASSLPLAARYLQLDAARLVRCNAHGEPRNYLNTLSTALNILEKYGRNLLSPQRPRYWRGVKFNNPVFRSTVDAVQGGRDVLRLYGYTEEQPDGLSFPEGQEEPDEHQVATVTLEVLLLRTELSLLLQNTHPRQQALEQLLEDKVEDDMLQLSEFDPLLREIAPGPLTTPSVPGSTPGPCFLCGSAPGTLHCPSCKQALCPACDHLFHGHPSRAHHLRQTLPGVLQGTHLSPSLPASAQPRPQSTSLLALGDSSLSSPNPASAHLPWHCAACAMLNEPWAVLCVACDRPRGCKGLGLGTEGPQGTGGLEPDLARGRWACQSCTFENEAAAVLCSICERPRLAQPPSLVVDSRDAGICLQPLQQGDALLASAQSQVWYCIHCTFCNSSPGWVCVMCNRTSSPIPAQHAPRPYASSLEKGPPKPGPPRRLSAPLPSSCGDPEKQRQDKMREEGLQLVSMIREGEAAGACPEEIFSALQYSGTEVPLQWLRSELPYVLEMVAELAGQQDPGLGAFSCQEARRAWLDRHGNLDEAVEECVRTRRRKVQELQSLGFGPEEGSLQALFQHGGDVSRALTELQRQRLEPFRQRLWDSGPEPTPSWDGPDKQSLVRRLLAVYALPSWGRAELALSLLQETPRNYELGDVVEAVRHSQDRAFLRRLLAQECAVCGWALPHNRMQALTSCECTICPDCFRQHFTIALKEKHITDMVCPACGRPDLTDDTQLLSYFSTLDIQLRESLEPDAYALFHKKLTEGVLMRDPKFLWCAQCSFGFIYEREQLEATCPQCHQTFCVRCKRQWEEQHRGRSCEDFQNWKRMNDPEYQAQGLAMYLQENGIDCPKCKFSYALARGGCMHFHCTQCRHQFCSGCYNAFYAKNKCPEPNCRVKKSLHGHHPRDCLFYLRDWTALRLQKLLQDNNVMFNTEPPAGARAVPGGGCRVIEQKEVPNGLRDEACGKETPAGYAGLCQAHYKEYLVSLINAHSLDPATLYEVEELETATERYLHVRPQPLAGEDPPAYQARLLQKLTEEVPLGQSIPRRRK
UniProt P54646: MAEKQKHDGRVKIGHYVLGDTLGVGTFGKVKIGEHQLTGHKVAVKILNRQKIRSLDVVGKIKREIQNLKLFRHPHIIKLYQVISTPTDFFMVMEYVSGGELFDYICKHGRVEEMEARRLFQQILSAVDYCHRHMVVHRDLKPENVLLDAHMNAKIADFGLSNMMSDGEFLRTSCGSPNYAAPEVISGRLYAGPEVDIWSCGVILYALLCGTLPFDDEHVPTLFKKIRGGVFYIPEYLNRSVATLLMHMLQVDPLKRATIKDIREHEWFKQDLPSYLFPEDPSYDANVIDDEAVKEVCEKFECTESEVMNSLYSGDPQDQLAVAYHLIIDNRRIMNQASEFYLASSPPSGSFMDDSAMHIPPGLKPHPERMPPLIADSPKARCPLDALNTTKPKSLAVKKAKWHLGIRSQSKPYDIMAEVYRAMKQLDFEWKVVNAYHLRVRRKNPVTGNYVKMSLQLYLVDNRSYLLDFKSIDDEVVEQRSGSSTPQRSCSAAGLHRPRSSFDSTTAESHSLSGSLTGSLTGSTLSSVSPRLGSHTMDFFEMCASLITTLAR
UniProt P54619: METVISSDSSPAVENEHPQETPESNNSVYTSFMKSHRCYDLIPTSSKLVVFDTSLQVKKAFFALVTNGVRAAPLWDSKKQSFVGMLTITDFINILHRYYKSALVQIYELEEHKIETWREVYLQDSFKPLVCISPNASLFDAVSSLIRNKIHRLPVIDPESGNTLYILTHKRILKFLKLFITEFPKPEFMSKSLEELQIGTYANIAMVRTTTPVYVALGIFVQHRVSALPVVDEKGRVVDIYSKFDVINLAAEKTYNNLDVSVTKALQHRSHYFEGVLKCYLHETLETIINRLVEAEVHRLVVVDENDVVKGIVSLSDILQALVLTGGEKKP
UniProt Q9BYM8: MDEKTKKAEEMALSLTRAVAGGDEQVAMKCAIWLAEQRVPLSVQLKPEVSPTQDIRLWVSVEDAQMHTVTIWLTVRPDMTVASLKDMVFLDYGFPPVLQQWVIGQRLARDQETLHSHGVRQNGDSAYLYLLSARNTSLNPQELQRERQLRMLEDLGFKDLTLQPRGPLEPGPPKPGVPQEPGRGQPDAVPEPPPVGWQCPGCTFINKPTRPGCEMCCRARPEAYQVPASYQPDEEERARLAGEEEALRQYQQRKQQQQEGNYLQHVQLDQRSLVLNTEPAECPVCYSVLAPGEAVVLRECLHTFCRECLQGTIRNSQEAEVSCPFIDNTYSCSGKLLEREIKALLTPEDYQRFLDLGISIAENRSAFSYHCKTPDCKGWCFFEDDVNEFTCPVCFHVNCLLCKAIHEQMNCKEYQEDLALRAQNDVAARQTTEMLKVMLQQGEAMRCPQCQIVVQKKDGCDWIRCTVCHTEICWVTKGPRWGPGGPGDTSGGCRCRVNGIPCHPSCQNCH

Columns and labels:
[1] = target: 2xHA-2xStrep-OTULIN, full-length wild type (UniProt Q96BN8); experiment: pull-down
[2] = target: 2xHA-2xStrep-HOIP (co-expressed with V5-HOIL1 and V5-SHARPIN; the precipitate is called LUBAC) (UniProt Q96EP0); experiment: pull-down
2xFLAG-2xStrep-AMPKα2 = 2xFLAG-2xStrep-AMPKα2 (UniProt P54646); experiment: co-IP

Substance | binding [1] | binding [2] | binding (2xFLAG-2xStrep-AMPKα2)
AMPK γ1 subunit (PRKAG1), endogenous (from UniProt P54619 1-331) | binds | binds | 
HOIL-1, endogenous (from UniProt Q9BYM8 1-510) (enzyme) |  |  | binds
HOIP (RNF31), endogenous (from UniProt Q96EP0 1-1072) (enzyme) |  |  | binds
OTULIN, endogenous (from UniProt Q96BN8 1-352) (enzyme) |  |  | binds
